## Library screen at single concentrations

From ChEMBL document CHEMBL3988442, “University of Dundee, Small-Polar-MMV Screening Library” (2021).

T. brucei: 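Whole-parasite assay of Trypanosoma brucei over 72 hours; the read-out is not stated. Compounds at 30 µM. The record gives no direction; compounds that gave an IC50 in retests scored well above the rest, so higher reads as stronger inhibition. Values scatter widely below zero; nearly all retest evidence comes from the higher of the two concentrations used. About 64,000 compounds were tested under these conditions; 1.5% (about 940) showed 50% or more at least once.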
Toxoplasma: 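Assay of Toxoplasma gondii numbers, read through their beta-galactosidase reporter with a colour substrate. Tested at 10 µM. Higher reads as fewer parasites (inferred from which compounds were picked for retests). About 67,000 compounds were tested under these conditions; 0.38% (about 260) showed 50% or more at least once.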

Results are given as percent effect.
The controls that fix the scale are not given in the record; negative values are as filed.
This is an unselected part of the compounds tested.
A dash means the value is not listed here; it may have been measured.

structure	T. brucei	Toxoplasma
CC(=O)Nc1cccc(-c2ccccc2CCN)c1	-7.354%	-4.175%
Cn1cc(C2CC3(CCN(C(=O)c4cccs4)CC3)NC2=O)cn1 (stereo not given)	-52.23%	-4.402%
Cc1cnccc1N1CCCN(C(=O)CCCc2cn[nH]c2)CC1	-30.4%	1.97%
OCC1CCCCN1CCn1ccnc1-c1ccc2c(c1)OCCO2 (stereo not given)	-17.18%	2.92%
Cc1cc(CN2CCCC2c2c(C)nn(C)c2Cl)on1 (stereo not given)	10.05%	4.733%
O=C(Cn1cc(C(=O)O)ccc1=O)Nc1ccc(F)cc1Cl	-1.726%	-6.336%
CC(C)c1nc(C2CCCN2C(=O)CN(C)Cc2ccccc2)no1 (stereo not given)	-27.27%	2.581%
CN(CCC(O)c1ccccc1)c1cc(C2CC2)ncn1 (stereo not given)	-87.71%	5.127%
COCCN(C)C[C@@H]1CN(c2nnc(C(C)C)s2)C[C@@H]1CO	-42.49%	0.5408%
[H][C@]12CN(c3ncc(F)cn3)C[C@@]1([H])S(=O)(=O)CC[C@@H]2C(=O)NC(C)C	-93.79%	-4.169%
CC1CCN(CC(O)CNc2ccccn2)CC1 (stereo not given)	-147.6%	-4.293%
O=S(=O)(c1ccccc1F)N1CCC(Oc2cccnn2)CC1	3.263%	-4.118%
Cn1cc(I)c(C(=O)NCCCn2cc(Br)cn2)n1	-	4.457%
O=C(O)C(F)(F)F.[H][C@@]12C[C@@H](OCc3ccccc3F)CN1CCN(C(=O)c1cnccn1)C2	-33.79%	4.28%
Cn1cc(NC(=O)Nc2cccc3cccnc23)ccc1=O	-17.57%	-27.97%
O=C(O)C(F)(F)F.O=C(O)C(F)(F)F.O=C(O)C(F)(F)F.[H][C@@]12CN(Cc3cccnc3)C[C@]1([H])CN(S(=O)(=O)c1cn(C)cn1)C2	-18.5%	-6.173%
NC(=O)C1CN(C(=O)Nc2ccccc2OCC(F)(F)F)CCO1 (stereo not given)	-10.75%	-38.03%
O=C(O)C(F)(F)F.O=C(O)C(F)(F)F.[H][C@@]12CCCO[C@]1([H])[C@H](NC(=O)C1CC1)CN2Cc1cccc(C)n1	-38.06%	14.79%
Cc1oc(-c2ccccc2)nc1C(=O)NC1=NCCS1	-10.37%	10.77%
Cc1cc(NC(=O)NCc2nccn2C)ccc1OC(C)C	18.22%	1.512%
CCn1ncc(S(=O)(=O)N[C@@H]2CCC[C@@H](n3ccnc3)[C@@H]2O)c1C	2.721%	3.282%
Cc1cc(F)cc2c(N3CCC(S(N)(=O)=O)CC3)c(C#N)cnc12	7.49%	-6.023%
Cc1ccn(CC(=O)N2CC[C@@H](c3ccc4ccccc4c3)[C@H](O)C2)n1	-111%	-0.3944%
O=C(C1CCOc2ccccc21)N1CCOc2ccc(F)cc21 (stereo not given)	-20.26%	1.136%
O=C(c1cccnc1-n1cncn1)N1CCN(CC(F)(F)F)CC1	-15.78%	-1.011%
CN(Cc1cc(C2CC2)[nH]n1)C(=O)c1cnn2ccn(C)c12	-20.38%	-4.262%
Cc1ccc(CN2CCCC3(CCCCN3S(C)(=O)=O)C2)s1.O=C(O)C(F)(F)F (stereo not given)	-31.96%	17.75%
O=C1CCN(CCS(=O)(=O)c2ccc(Cl)cc2)CCN1	6.889%	17.3%
CC1CCC(N2CCC(NS(=O)(=O)CCCF)CC2)CC1 (stereo not given)	-13.77%	1.58%
CN(C)CCCNC(=O)c1nc(Cc2c(Cl)cccc2Cl)no1	30.84%	8.187%
CN(C)CCCn1cnc2cc(NC(=O)c3n[nH]c4c3CCC4)ccc21	20.67%	5.152%
CC(C)Cc1nc(CN2CCC(NC(=O)c3cccs3)CC2)no1	-7.096%	2.435%
CC(=O)N1CCC(c2ccnc(Nc3cc(C(F)(F)F)ccn3)n2)C1 (stereo not given)	-	7.429%
CCN(C)S(=O)(=O)N1CCCC(CO)(CC=C(C)C)C1 (stereo not given)	-1.554%	-6.287%
COc1cccc(CN2CCCC3(CCN(C(CO)CO)C3)C2)c1 (stereo not given)	-29.56%	5.726%
Cc1cccc(S(=O)(=O)NCC(C)N2CCN(C)CC2)c1Cl (stereo not given)	-16.85%	5.651%
COCC1CN(Cc2ccoc2)Cc2cn(CC3CCCC3)nc21 (stereo not given)	-11.48%	1.54%
O=C(CN1CCC(c2ccccc2)C1)NCC(F)(F)F (stereo not given)	4.023%	-4.567%
COC(=O)c1cccnc1N1CCC(Oc2cccc(F)c2)CC1	-25.94%	18.78%
COc1ncc(-c2cc(NC3CCCC3)nc3[nH]ccc23)c(OC)n1	-39.38%	-8.945%
O=C(c1cccc2ncccc12)N1CCCN(c2cccnn2)CC1	10.46%	1.621%
Cc1cc(CN(C2CC2)C(C)C(C)C)on1 (stereo not given)	-50.89%	-9.769%
FC(F)c1nnc2ccc(N3CCC4(CCOC4)C3)nn12 (stereo not given)	-51.53%	3.977%
CC(O)c1cn(CC2CCN(C(=O)CN3CCCC3=O)CC2)nn1 (stereo not given)	-	-9.663%
O=C1CCCCCN1CCC(=O)N1CCCC(c2ccn[nH]2)C1 (stereo not given)	7.221%	-1.559%
CC[C@@]1(O)CCN(C(=O)CCSCc2ccc(F)cc2)C[C@H]1O	-	-27.1%
CCNC(=O)N(C)C(c1ccccc1)c1ccccn1 (stereo not given)	-	7.993%
c1ccc(Cc2noc(CN3CCOC(Cn4cncn4)C3)n2)cc1 (stereo not given)	-15.95%	6.924%
COc1cccc(CN(C)Cc2cccc(C#N)c2)c1OC	5.789%	0.6906%
CC(C)CCNC(=O)NC(C)c1nncn1C (stereo not given)	-	14.63%
Cc1cc(C)cc(OCCCn2nc3ccccn3c2=O)c1	14%	-0.599%
COc1c(Cl)cccc1NCc1csc(NC(C)=O)n1	9.77%	-2.5%